{"sequences": {"note": "Amino acid sequences for entries named in this document (tags omitted). A change or cut given only in a name is not applied to a line headed by its entry.", "UniProt Q13227": "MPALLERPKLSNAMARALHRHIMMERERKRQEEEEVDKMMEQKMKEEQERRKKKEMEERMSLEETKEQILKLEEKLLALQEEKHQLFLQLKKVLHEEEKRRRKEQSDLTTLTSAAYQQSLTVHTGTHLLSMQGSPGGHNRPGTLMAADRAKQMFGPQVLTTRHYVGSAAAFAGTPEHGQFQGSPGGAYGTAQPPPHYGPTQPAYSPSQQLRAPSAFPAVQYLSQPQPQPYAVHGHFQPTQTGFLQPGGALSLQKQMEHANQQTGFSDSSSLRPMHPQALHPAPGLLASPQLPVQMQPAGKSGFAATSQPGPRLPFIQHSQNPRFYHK", "UniProt O60443": "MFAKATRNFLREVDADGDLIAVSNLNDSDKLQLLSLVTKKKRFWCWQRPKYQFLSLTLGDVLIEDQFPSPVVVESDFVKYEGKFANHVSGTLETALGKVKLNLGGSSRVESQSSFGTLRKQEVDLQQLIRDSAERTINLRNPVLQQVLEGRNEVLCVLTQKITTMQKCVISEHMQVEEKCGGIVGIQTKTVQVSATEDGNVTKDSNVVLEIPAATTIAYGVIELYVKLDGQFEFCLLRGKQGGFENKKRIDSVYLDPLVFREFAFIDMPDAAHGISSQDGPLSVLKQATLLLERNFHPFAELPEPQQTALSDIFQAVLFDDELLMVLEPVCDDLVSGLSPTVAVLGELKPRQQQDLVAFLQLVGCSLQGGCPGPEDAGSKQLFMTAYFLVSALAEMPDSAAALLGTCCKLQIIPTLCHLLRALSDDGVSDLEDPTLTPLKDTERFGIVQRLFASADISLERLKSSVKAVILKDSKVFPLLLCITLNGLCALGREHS", "UniProt Q8NBJ4": "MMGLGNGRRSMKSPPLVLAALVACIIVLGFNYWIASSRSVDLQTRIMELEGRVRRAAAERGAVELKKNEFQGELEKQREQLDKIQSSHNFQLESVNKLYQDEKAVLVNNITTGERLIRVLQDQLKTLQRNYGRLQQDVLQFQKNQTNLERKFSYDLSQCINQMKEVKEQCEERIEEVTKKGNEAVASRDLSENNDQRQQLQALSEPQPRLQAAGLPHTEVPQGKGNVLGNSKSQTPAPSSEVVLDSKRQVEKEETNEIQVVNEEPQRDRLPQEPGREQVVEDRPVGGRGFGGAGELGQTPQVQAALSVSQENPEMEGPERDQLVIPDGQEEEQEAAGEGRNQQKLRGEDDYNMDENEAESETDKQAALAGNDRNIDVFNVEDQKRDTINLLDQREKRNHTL", "UniProt Q9BQQ3": "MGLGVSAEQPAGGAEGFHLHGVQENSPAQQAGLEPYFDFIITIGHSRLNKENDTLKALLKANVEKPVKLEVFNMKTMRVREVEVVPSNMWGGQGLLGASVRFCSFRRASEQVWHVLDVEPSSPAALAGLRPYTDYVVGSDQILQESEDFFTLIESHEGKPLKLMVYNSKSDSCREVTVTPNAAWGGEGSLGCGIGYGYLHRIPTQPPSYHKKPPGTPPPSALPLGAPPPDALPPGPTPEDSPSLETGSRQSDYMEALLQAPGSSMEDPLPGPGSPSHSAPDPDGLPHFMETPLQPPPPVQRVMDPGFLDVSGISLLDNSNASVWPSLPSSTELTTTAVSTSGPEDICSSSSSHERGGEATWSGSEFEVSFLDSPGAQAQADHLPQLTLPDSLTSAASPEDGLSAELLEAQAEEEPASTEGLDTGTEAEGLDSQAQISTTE", "UniProt Q9BVP2": "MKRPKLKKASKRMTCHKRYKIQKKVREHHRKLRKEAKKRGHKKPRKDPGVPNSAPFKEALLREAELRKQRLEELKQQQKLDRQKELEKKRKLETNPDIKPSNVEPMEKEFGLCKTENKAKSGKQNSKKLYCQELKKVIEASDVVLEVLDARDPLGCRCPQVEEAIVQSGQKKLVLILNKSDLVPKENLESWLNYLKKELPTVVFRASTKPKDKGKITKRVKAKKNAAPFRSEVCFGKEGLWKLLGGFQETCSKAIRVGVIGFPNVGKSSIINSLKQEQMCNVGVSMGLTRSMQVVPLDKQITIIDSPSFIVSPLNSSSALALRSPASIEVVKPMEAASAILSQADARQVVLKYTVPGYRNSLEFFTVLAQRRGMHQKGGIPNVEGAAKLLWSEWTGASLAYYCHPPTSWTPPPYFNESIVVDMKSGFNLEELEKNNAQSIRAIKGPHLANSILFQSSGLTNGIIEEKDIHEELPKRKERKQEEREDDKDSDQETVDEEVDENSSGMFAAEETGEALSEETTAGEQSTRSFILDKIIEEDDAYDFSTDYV", "UniProt Q68CQ7": "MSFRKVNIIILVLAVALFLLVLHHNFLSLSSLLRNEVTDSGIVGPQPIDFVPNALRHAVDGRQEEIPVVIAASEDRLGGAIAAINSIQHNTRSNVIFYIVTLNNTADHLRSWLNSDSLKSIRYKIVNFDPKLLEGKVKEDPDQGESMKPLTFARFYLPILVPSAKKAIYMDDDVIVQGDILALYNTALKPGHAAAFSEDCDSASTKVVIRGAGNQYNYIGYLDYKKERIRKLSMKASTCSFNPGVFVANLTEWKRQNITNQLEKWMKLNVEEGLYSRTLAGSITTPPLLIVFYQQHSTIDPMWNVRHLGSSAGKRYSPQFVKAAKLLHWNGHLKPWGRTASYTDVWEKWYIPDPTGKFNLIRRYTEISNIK", "UniProt Q9NZD2": "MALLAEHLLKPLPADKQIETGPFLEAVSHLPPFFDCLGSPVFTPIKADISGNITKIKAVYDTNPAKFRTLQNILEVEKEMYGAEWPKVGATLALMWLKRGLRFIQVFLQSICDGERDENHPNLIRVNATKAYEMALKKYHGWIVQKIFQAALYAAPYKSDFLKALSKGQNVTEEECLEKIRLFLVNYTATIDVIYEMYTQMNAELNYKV", "UniProt Q5T3I0": "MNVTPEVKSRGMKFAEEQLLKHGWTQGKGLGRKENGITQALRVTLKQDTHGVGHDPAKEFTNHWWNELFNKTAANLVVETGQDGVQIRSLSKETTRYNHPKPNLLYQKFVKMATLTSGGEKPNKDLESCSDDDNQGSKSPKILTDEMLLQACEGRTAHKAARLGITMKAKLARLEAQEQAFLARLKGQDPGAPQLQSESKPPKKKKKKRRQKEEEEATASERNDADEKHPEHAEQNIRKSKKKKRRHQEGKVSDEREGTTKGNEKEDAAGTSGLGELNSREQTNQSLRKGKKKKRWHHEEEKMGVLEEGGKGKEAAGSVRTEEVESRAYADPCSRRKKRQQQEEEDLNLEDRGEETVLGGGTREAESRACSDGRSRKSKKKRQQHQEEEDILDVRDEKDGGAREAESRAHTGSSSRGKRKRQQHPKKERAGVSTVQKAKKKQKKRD", "UniProt I6L899": "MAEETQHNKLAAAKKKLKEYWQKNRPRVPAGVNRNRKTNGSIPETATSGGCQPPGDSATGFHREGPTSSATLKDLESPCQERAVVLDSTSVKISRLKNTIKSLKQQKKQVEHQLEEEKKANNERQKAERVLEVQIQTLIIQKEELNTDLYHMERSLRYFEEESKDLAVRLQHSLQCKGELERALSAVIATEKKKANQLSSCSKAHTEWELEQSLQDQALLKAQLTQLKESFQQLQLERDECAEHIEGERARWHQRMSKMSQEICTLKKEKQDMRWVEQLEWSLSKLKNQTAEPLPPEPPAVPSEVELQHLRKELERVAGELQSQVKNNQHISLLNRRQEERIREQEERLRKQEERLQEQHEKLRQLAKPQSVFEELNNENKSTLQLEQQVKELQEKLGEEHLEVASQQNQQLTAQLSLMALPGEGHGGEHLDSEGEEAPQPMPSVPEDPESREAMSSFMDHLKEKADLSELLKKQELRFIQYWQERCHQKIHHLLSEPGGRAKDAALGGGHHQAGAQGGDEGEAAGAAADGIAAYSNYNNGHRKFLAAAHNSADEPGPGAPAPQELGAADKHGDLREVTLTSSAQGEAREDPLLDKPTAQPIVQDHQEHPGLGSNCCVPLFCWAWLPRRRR", "UniProt P22352, whole entry, looked up": "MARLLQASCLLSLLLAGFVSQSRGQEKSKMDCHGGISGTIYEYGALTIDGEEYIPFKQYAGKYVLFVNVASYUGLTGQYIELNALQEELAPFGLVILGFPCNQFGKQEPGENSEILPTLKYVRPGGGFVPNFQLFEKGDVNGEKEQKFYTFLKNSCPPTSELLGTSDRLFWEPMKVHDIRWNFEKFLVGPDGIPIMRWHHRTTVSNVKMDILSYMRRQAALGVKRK", "UniProt Q6ZS86": "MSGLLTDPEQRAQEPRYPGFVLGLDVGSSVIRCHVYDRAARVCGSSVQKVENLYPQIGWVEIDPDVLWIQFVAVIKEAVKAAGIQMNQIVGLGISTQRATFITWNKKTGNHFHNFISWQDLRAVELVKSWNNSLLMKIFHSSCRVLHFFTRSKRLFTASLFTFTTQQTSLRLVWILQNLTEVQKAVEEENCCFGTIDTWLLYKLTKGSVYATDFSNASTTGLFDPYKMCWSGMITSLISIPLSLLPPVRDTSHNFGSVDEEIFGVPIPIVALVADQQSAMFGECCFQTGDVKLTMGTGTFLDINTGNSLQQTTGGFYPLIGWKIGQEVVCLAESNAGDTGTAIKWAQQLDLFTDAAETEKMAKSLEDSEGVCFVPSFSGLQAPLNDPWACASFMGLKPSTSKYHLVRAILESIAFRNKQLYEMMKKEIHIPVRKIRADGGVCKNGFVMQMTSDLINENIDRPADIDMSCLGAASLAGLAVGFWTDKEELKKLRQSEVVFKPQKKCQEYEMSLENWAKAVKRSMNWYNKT", "UniProt P43250, whole entry, looked up": "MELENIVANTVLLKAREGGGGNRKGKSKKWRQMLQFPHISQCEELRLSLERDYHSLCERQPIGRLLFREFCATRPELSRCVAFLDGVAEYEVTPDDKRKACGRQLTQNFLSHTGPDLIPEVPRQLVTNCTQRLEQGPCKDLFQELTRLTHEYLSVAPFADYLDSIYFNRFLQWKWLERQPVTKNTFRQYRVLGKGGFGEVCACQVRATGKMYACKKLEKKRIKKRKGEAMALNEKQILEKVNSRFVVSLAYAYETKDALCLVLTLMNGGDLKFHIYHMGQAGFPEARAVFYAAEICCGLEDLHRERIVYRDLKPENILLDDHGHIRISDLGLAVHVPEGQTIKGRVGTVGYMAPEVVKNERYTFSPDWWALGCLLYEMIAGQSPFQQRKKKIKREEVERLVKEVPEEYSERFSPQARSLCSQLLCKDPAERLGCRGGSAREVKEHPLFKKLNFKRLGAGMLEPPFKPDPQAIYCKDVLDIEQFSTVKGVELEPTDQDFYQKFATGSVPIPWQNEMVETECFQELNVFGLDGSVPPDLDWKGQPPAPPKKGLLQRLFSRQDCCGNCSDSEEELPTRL", "UniProt Q9UJJ9": "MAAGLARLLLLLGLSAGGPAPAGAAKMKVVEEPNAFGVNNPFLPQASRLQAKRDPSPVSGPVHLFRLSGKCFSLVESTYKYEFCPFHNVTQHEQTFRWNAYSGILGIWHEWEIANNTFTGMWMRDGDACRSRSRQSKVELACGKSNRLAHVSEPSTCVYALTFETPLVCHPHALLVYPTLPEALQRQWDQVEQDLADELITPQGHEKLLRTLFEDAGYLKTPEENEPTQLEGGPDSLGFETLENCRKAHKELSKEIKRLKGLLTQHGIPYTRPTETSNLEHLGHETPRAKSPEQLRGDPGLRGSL", "UniProt O75420": "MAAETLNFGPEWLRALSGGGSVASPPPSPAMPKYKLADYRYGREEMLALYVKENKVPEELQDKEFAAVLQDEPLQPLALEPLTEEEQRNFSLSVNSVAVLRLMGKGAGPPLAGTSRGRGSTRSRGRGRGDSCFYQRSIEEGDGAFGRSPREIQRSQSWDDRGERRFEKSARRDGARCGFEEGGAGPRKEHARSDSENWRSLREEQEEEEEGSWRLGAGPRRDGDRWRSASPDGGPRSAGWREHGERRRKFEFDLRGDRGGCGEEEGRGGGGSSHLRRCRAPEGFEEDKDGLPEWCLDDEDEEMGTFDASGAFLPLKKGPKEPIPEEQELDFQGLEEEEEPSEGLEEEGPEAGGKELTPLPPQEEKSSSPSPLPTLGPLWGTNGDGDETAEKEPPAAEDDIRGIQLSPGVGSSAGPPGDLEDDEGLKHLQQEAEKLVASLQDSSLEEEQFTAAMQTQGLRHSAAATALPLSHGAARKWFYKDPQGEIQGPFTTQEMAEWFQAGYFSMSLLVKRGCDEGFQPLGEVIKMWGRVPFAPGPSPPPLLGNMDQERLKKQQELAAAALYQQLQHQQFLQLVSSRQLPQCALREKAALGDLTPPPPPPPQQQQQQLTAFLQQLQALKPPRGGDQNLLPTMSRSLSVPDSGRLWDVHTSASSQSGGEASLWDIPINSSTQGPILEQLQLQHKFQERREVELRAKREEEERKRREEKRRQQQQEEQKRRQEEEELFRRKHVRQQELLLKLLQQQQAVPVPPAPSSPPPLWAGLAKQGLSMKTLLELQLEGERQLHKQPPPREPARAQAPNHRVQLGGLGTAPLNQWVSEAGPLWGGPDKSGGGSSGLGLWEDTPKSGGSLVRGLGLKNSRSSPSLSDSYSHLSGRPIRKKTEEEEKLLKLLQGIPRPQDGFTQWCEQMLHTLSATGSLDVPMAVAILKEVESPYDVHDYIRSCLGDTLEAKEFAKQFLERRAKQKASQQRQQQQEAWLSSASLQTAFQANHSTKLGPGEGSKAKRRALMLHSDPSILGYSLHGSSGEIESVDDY"}, "source": "the supplement of paper PMC10849652", "note": "The list shows a part of the results."}
{"compound": "CNCc1ccc(-c2[nH]c3cc(F)cc4c3c2CCNC4=O)cc1 [rucaparib]", "experiment": "log2 fold change, soluble protein after heating vs DMSO (PISA); higher = thermal stabilisation; K562 cells, 10 uM, 30 min; active = over 0.2 and 3.5 SD of the protein, either way, in both replicates (recomputed)", "method_in_brief": "(§1)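 K562 cells at 2×10^6 cells/mL were exposed to 10 μM compound for 30 min, then aliquots were heated for 3 min across 48°C-58°C, pooled, and extracted in PBS containing 0.5% NP-40 at 4°C. The supernatant after 21,000xg for 90 min was taken as soluble protein and measured by TMTpro 16plex LC-MS/MS with channel sums equalised. Thermal stability is reported relative to control samples, with values from duplicates. Fold changes are given on a log2 scale.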"}
{"target": "GPAA1 (UniProt E9PLG8)", "log2 fold change": "inactive: 0.012"}
{"target": "GPS2 (UniProt Q13227)", "log2 fold change": "inactive: 0.02"}
{"target": "GSDME (UniProt O60443)", "log2 fold change": "inactive: 0.021"}
{"target": "GPNMB (UniProt Q14956)", "log2 fold change": "inactive: 0.007"}
{"target": "GOLM1 (UniProt Q8NBJ4)", "log2 fold change": "inactive: -0.118"}
{"target": "GORASP1 (UniProt Q9BQQ3)", "log2 fold change": "inactive: 0.347"}
{"target": "GNL3 (UniProt Q9BVP2)", "log2 fold change": "inactive: -0.052"}
{"target": "GLT8D1 (UniProt Q68CQ7)", "log2 fold change": "inactive: 0.044"}
{"target": "GLTP (UniProt Q9NZD2)", "log2 fold change": "inactive: -0.058"}
{"target": "GINM1 (UniProt Q9NU53)", "log2 fold change": "inactive: 0.112"}
{"target": "GPS1 (UniProt A8K070)", "log2 fold change": "inactive: -0.046"}
{"target": "GNL2 (UniProt Q13823)", "log2 fold change": "inactive: 0.381"}
{"target": "GPATCH4 isoform 3 (UniProt Q5T3I0)", "log2 fold change": "inactive: 0.149"}
{"target": "GOSR1 (UniProt E9PCW1)", "log2 fold change": "inactive: 0.111"}
{"target": "GOLGA8R (UniProt I6L899)", "log2 fold change": "inactive: 0.189"}
{"target": "GPX3 (UniProt P22352)", "log2 fold change": "inactive: 0.018"}
{"compound": "CNc1nc(-c2ccc3c(N)n[nH]c3c2)cc(N2C[C@@H](C(=O)NC3CCCCC3)CC[C@H]2C)n1", "experiment": "log2 fold change, soluble protein after heating vs DMSO (PISA); higher = thermal stabilisation; K562 cells, 10 uM, 30 min; active = over 0.2 and 3.5 SD of the protein, either way, in both replicates (recomputed)", "method_in_brief": "as §1"}
{"target": "GPD1 (UniProt P21695)", "log2 fold change": "inactive: 0.05"}
{"target": "GPAA1 (UniProt E9PLG8)", "log2 fold change": "inactive: -0.072"}
{"target": "GSE1 (UniProt Q14687)", "log2 fold change": "inactive: -0.014"}
{"target": "GIT2 (UniProt Q14161)", "log2 fold change": "inactive: 0.028"}
{"target": "GK5 (UniProt Q6ZS86)", "log2 fold change": "inactive: -0.039"}
{"target": "GSDME (UniProt O60443)", "log2 fold change": "inactive: -0.066"}
{"target": "GOLGA1 (UniProt Q92805)", "log2 fold change": "inactive: -0.007"}
{"target": "GLE1 (UniProt Q53GS7)", "log2 fold change": "inactive: -0.081"}
{"target": "GORASP1 (UniProt Q9BQQ3)", "log2 fold change": "inactive: -0.069"}
{"target": "GNL3 (UniProt Q9BVP2)", "log2 fold change": "inactive: 0.044"}
{"target": "GOPC (UniProt Q9HD26)", "log2 fold change": "inactive: 0.164"}
{"target": "GLT8D1 (UniProt Q68CQ7)", "log2 fold change": "inactive: 0"}
{"target": "GPATCH4 isoform 3 (UniProt Q5T3I0)", "log2 fold change": "inactive: -0.038"}
{"target": "GPT2 (UniProt Q8TD30)", "log2 fold change": "inactive: 0.075"}
{"target": "GRK6 isoform 2 (UniProt P43250)", "log2 fold change": "inactive: 0.127"}
{"target": "GNPTG (UniProt Q9UJJ9)", "log2 fold change": "inactive: 0.001"}
{"target": "GOSR1 (UniProt E9PCW1)", "log2 fold change": "inactive: 0.017"}
{"target": "GOLGA8R (UniProt I6L899)", "log2 fold change": "inactive: 0.246"}
{"target": "GPX3 (UniProt P22352)", "log2 fold change": "inactive: 0.005"}
{"compound": "COC(=O)N[C@@H](C)CNc1nccc(-c2cn(C(C)C)nc2-c2cc(Cl)cc(NS(C)(=O)=O)c2F)n1 [encorafenib]", "experiment": "log2 fold change, soluble protein after heating vs DMSO (PISA); higher = thermal stabilisation; K562 cells, 10 uM, 30 min; active = over 0.2 and 3.5 SD of the protein, either way, in both replicates (recomputed)", "method_in_brief": "as §1"}
{"target": "GPAA1 (UniProt E9PLG8)", "log2 fold change": "inactive: -0.019"}
{"target": "GPS2 (UniProt Q13227)", "log2 fold change": "inactive: 0.041"}
{"target": "GSDME (UniProt O60443)", "log2 fold change": "inactive: 0.001"}
{"target": "GPNMB (UniProt Q14956)", "log2 fold change": "inactive: -0.25"}
{"target": "GOLM1 (UniProt Q8NBJ4)", "log2 fold change": "inactive: 0.035"}
{"target": "GORASP1 (UniProt Q9BQQ3)", "log2 fold change": "inactive: 0.203"}
{"target": "GNL3 (UniProt Q9BVP2)", "log2 fold change": "inactive: -0.065"}
{"target": "GLT8D1 (UniProt Q68CQ7)", "log2 fold change": "inactive: 0.02"}
{"target": "GLTP (UniProt Q9NZD2)", "log2 fold change": "inactive: -0.09"}
{"target": "GINM1 (UniProt Q9NU53)", "log2 fold change": "inactive: 0.107"}
{"target": "GPS1 (UniProt A8K070)", "log2 fold change": "inactive: -0.006"}
{"target": "GNL2 (UniProt Q13823)", "log2 fold change": "inactive: 0.125"}
{"target": "GPATCH4 isoform 3 (UniProt Q5T3I0)", "log2 fold change": "inactive: 0.057"}
{"target": "GOSR1 (UniProt E9PCW1)", "log2 fold change": "inactive: -0.085"}
{"target": "GOLGA8R (UniProt I6L899)", "log2 fold change": "inactive: -0.098"}
{"target": "GPX3 (UniProt P22352)", "log2 fold change": "inactive: -0.116"}
{"compound": "COC(=O)[C@H](CCSC)NC(=O)C1=C(C=C(C=C1)NC[C@H](CS)N)C2=CC=CC=C2", "experiment": "log2 fold change, soluble protein after heating vs DMSO (PISA); higher = thermal stabilisation; K562 cells, 10 uM, 30 min; active = over 0.2 and 3.5 SD of the protein, either way, in both replicates (recomputed)", "method_in_brief": "as §1"}
{"target": "GPD1 (UniProt P21695)", "log2 fold change": "inactive: 0.016"}
{"target": "GSE1 (UniProt Q14687)", "log2 fold change": "active: -0.498"}
{"target": "GPS2 (UniProt Q13227)", "log2 fold change": "inactive: -0.025"}
{"target": "GK5 (UniProt Q6ZS86)", "log2 fold change": "inactive: -0.091"}
{"target": "GOLGA1 (UniProt Q92805)", "log2 fold change": "inactive: -0.017"}
{"target": "GREB1 (UniProt Q4ZG55)", "log2 fold change": "inactive: -0.112"}
{"target": "GOLM1 (UniProt Q8NBJ4)", "log2 fold change": "inactive: -0.088"}
{"target": "GNL3 (UniProt Q9BVP2)", "log2 fold change": "inactive: 0.015"}
{"target": "GOPC (UniProt Q9HD26)", "log2 fold change": "inactive: -0.229"}
{"target": "GOLPH3L (UniProt Q9H4A5)", "log2 fold change": "inactive: 0.018"}
{"target": "GLTP (UniProt Q9NZD2)", "log2 fold change": "inactive: -0.06"}
{"target": "GPATCH4 isoform 3 (UniProt Q5T3I0)", "log2 fold change": "inactive: -0.282"}
{"target": "GPT2 (UniProt Q8TD30)", "log2 fold change": "inactive: -0.095"}
{"target": "GRK6 isoform 2 (UniProt P43250)", "log2 fold change": "inactive: 0.046"}
{"target": "GOLGA6B (UniProt A6NDN3)", "log2 fold change": "inactive: -0.475"}
{"target": "GOLGA8R (UniProt I6L899)", "log2 fold change": "inactive: -0.086"}
{"target": "GPX3 (UniProt P22352)", "log2 fold change": "inactive: -0.114"}
{"compound": "COC1=CC=C(C=C1)CN2C=CC3=C2C=C(C=C3)C(=O)NO", "experiment": "log2 fold change, soluble protein after heating vs DMSO (PISA); higher = thermal stabilisation; K562 cells, 10 uM, 30 min; active = over 0.2 and 3.5 SD of the protein, either way, in both replicates (recomputed)", "method_in_brief": "as §1"}
{"target": "GLCE (UniProt O94923)", "log2 fold change": "inactive: -0.073"}
{"target": "GPAA1 (UniProt E9PLG8)", "log2 fold change": "inactive: -0.174"}
{"target": "GIGYF1 (UniProt O75420)", "log2 fold change": "inactive: -0.1"}
{"target": "GIT2 (UniProt Q14161)", "log2 fold change": "inactive: -0.17"}
{"target": "GPS2 (UniProt Q13227)", "log2 fold change": "inactive: -0.108"}
{"target": "GK5 (UniProt Q6ZS86)", "log2 fold change": "inactive: -0.008"}
{"target": "GREB1 (UniProt Q4ZG55)", "log2 fold change": "inactive: 0.448"}
{"target": "GP6 isoform 3 (UniProt Q9HCN6)", "log2 fold change": "inactive: 0.204"}
{"target": "GOPC (UniProt Q9HD26)", "log2 fold change": "inactive: -0.059"}
{"target": "GOLPH3L (UniProt Q9H4A5)", "log2 fold change": "inactive: -0.185"}
{"target": "GPAM (UniProt Q9HCL2)", "log2 fold change": "inactive: -0.081"}
{"target": "GPS1 (UniProt A8K070)", "log2 fold change": "inactive: 0.122"}
{"target": "GPATCH4 isoform 3 (UniProt Q5T3I0)", "log2 fold change": "inactive: -0.234"}
{"target": "GPR68 (UniProt Q15743)", "log2 fold change": "inactive: -0.098"}
{"target": "GNPTG (UniProt Q9UJJ9)", "log2 fold change": "inactive: -0.123"}
{"target": "GOLGA6B (UniProt A6NDN3)", "log2 fold change": "inactive: 0.088"}
{"target": "GOLGA8R (UniProt I6L899)", "log2 fold change": "active: 0.591"}
